From PMC5943352 come the findings set out here.

The chains behind the UniProt entries cited, without tags or fusion partners. Where a name states a change or a piece, a line headed by the entry shows the natural chain unless it says otherwise.
UniProt Q9H1Y0: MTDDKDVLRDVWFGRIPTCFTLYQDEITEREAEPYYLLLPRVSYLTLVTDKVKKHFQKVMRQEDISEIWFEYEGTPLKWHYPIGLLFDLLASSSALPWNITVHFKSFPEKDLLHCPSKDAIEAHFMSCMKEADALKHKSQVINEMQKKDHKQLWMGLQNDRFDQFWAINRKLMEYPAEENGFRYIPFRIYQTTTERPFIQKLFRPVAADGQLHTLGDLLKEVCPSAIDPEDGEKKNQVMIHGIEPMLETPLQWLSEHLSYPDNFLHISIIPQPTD
UniProt O94817: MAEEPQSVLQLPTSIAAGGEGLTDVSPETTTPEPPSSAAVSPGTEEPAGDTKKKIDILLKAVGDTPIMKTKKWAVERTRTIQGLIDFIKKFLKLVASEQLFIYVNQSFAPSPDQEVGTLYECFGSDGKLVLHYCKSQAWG

Where a chain is given by its changes, count along the chain named. Results are given in words; binding and its absence hold for the method and conditions named. For part of these data: Binding seen in cells or lysates may run through a third protein. Some results given as binding are weak or reduced against the parent protein; the word gives no strength. For part of these data: Where a sequence is shown, tags or fusion partners need not be part of it.

For assay [1], the target named is T1, FLAG-RAB37 (wild type) (human (from the RefSeq id NM_175738.4)) (UniProt Q96AX2).
T1 sequence: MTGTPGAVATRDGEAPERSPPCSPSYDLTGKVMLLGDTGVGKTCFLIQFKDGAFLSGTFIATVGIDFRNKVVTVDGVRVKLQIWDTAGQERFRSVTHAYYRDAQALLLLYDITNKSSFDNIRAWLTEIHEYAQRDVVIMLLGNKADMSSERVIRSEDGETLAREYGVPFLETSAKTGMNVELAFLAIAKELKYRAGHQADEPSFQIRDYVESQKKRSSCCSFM
Put plainly: co-IP; 293T co-transfected with MYC-ATG5 and FLAG-RAB37-WT, -T43N, -Q89L or control plasmid; starvation; IP anti-FLAG, blot anti-MYC and anti-FLAG.

The target in assay [2] is T2, FLAG-RAB37-T43N (human (from the RefSeq id NM_175738.4)) (UniProt Q96AX2).
T2 sequence: T1 sequence with T43N
The assay is described as above.

Assay [3] concerns the target T3, FLAG-RAB37-Q89L (human (from the RefSeq id NM_175738.4)) (UniProt Q96AX2).
T3 sequence: T1 sequence with Q89L
Described as above.

Assay [4] concerns the target ATG5-12 (endogenous ATG5-ATG12 conjugate, 293T cells) (human (endogenous in 293T)) (UniProt Q9H1Y0+O94817). Put plainly: co-IP; endogenous proteins in 293T lysate; immunoprecipitated with anti-ATG5, anti-RAB37 antibody or negative serum, blotted with anti-RAB37 or anti-ATG5; cells starved in EBSS 1 h; NETN buffer (50 mM Tris-HCl pH 8.0, 0.15 M NaCl, 1 mM EDTA, 0.5% NP-40), overnight 4 °C.

The target of assay [5] is ATG5 (endogenous, 293T cells) (human (endogenous in 293T)) (UniProt Q9H1Y0). The description is as above.
Assay [6] addresses ATG5 (endogenous, HeLa cells) (human (endogenous in HeLa)) (UniProt Q9H1Y0). Put plainly: co-IP; endogenous proteins in lysates of control and RAB37-knockdown HeLa cells starved 1 h; IP anti-ATG5 or negative serum, blot anti-RAB37, anti-ATG16L1 or anti-ATG5.
Assay [7] addresses MYC-GFP-ATG5 (wild type) (human) (UniProt Q9H1Y0). Put plainly: co-IP; 293T co-transfected with FLAG-RAB37 and MYC-GFP-ATG5 wild type or deletion mutants; reciprocal: IP anti-GFP, blot anti-FLAG, and IP anti-FLAG, blot anti-GFP; NETN buffer.
For a further assay, the target named is GST-ATG5 (human) (UniProt Q9H1Y0). Put plainly: pull-down; GST fusions on glutathione-agarose beads incubated overnight at 4 °C with His-RAB37 E. coli supernatant pre-incubated with 50 uM GTPgammaS; washed with NETN buffer; blot anti-RAB37; only the target purified.
The target of a further assay is BD-ATG5 (human) (UniProt Q9H1Y0). Put plainly: two-hybrid; Y2HGold yeast; AD-RAB37 (pGADT7) with BD-ATG5 constructs (pGBKT7); growth on SD/-Leu/-Trp/-His at 30 °C.

Regarding MYC-ATG5 (from UniProt Q9H1Y0-1 1-275), the binding result is “binds” in [1], “binds weakly” in assay [2] and “binds” in assay [3].

B1: RAB37 (endogenous, 293T cells) (protein, UniProt Q96AX2 1-223)
chain: T1 sequence
In the case of B1, the binding result in assay [4] and in assay [5] was “binds” in each case.

B2: RAB37 (endogenous, HeLa cells) (protein, UniProt Q96AX2 1-223)
chain: T1 sequence
On to B2, for which, in assay [6], the binding entry was “binds”.

B3: FLAG-RAB37 (wild type) (protein, UniProt Q96AX2-1 1-223)
chain: T1 sequence
For B3, the binding result in assay [7] is recorded as “binds”.

B4: His-RAB37 (protein, UniProt Q96AX2-1 1-223)
chain: T1 sequence
Consider B4, for which the binding entry with GST-ATG5 (human) is listed as “binds”.

B5: AD-RAB37 (protein, UniProt Q96AX2-1 1-223)
chain: T1 sequence
For B5, the binding result with BD-ATG5 (human) is “binds”.
